Values from PubChem BioAssay AID1259405 (NCATS, 2018).
Test: 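Knock-downs that lift recombinant protein yield in hamster ovary cells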 (primary screen). System: Chinese hamster CHO-K1 ovary cells with stable secreted eGFP expression. Reagent: single siRNA against mouse genes, 0.8 pmol siRNA per well (2 µl of 400 nM stock). Duration: 3 days. Measured: 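Per-well intracellular GFP measured by laser scanning cytometry, plus viability from ATP luminescence, each relative to plate median of non-targeting control wells, in %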. Scale: GFP, % of control: higher = more GFP per well, higher productivity; viability (ATP), % of control: higher = more viable cells (more ATP). Call rule: 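Called active when intracellular GFP, relative to negative control, is at or above 120%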.
Here is an unselected part of about 50,000 deposited reagents. Over the whole deposit, about 4,000 (8%) got an active call. 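Mouse siRNA library applied to hamster cells; one well for each siRNA.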 Entries without a mark were called inactive. Reagents against one gene are numbered here. Reagent sequences are not shown.

The first 5 records, ahead of the listing:
Gene | siRNA no. | GFP, % of control | viability (ATP), % of control
Nxt2 (nuclear transport factor 2-like export factor 2) | 1 | 71.4 | 60.7
Nxt2 (nuclear transport factor 2-like export factor 2) | 2 | 55.7 | 60.4
Nxt2 (nuclear transport factor 2-like export factor 2) | 3 | 107 | 70.6
Cic (capicua transcriptional repressor) | 1 | 85.2 | 74.4
Cic (capicua transcriptional repressor) | 2 | 65.8 | 50.3

Main list, from the first entry:
Gene | siRNA no. | GFP, % of control | viability (ATP), % of control
Nxt2 (nuclear transport factor 2-like export factor 2) | 1 | 71.4 | 60.7
Nxt2 (nuclear transport factor 2-like export factor 2) | 2 | 55.7 | 60.4
Nxt2 (nuclear transport factor 2-like export factor 2) | 3 | 107 | 70.6
Cic (capicua transcriptional repressor) | 1 | 85.2 | 74.4
Cic (capicua transcriptional repressor) | 2 | 65.8 | 50.3
Cic (capicua transcriptional repressor) | 3 | 109 | 105
Ppp4r1 (protein phosphatase 4, regulatory subunit 1) | 1 | 90.1 | 120
Ppp4r1 (protein phosphatase 4, regulatory subunit 1) | 2 | 54 | 43.9
Ppp4r1 (protein phosphatase 4, regulatory subunit 1) | 3 | 57.7 | 84.1
Micos13 | 1 | 104 | 103
Micos13 | 2 | 41.8 | 51.5
Micos13 | 3 | 85.1 | 71
Hmgcs2 (3-hydroxy-3-methylglutaryl-Coenzyme A synthase 2) | 1 | 54.9 | 73.6
Hmgcs2 (3-hydroxy-3-methylglutaryl-Coenzyme A synthase 2) | 2 | 57.7 | 62.2
Hmgcs2 (3-hydroxy-3-methylglutaryl-Coenzyme A synthase 2) | 3 | 83.2 | 79.6
Ndst3 (N-deacetylase/N-sulfotransferase (heparan glucosaminyl) 3) | 1 | 135 (active) | 104
Ndst3 (N-deacetylase/N-sulfotransferase (heparan glucosaminyl) 3) | 2 | 102 | 187
Ndst3 (N-deacetylase/N-sulfotransferase (heparan glucosaminyl) 3) | 3 | 76.7 | 65.8
Traip (TRAF-interacting protein) | 1 | 72.6 | 62
Traip (TRAF-interacting protein) | 2 | 111 | 84.6
Traip (TRAF-interacting protein) | 3 | 68.7 | 90
Frat2 (frequently rearranged in advanced T cell lymphomas 2) | 1 | 70.1 | 69.4
Frat2 (frequently rearranged in advanced T cell lymphomas 2) | 2 | 50.2 | 73.6
Frat2 (frequently rearranged in advanced T cell lymphomas 2) | 3 | 73.3 | 78.3
Hacd2 (3-hydroxyacyl-CoA dehydratase 2) | 1 | 90.6 | 129
Hacd2 (3-hydroxyacyl-CoA dehydratase 2) | 2 | 86 | 71.9
Rspo2 (R-spondin 2) | 1 | 85.1 | 71.1
Rspo2 (R-spondin 2) | 2 | 73.7 | 88.2
Rspo2 (R-spondin 2) | 3 | 73.4 | 63.9
Aurka (aurora kinase A) | 1 | 73.5 | 71.9
Aurka (aurora kinase A) | 2 | 94.4 | 72.3
Aurka (aurora kinase A) | 3 | 79.5 | 69.9
Pdzd8 (PDZ domain containing 8) | 1 | 64.1 | 70.4
Pdzd8 (PDZ domain containing 8) | 2 | 54.3 | 68.3
Pdzd8 (PDZ domain containing 8) | 3 | 48 | 91.1
Cope (coatomer protein complex, subunit epsilon) | 1 | 96.8 | 90.1
Cope (coatomer protein complex, subunit epsilon) | 2 | 67.4 | 68.1
Cope (coatomer protein complex, subunit epsilon) | 3 | 88.8 | 79.5
Plpp6 (phospholipid phosphatase 6) | 1 | 64.5 | 77.5
Plpp6 (phospholipid phosphatase 6) | 2 | 100 | 66.4
Plpp6 (phospholipid phosphatase 6) | 3 | 64.3 | 100
Cstl1 (cystatin-like 1) | 1 | 76.7 | 49.2
Cstl1 (cystatin-like 1) | 2 | 84.1 | 66.5
Cstl1 (cystatin-like 1) | 3 | 101 | 95.6
Hook3 (hook microtubule tethering protein 3) | 1 | 80.8 | 91
Hook3 (hook microtubule tethering protein 3) | 2 | 80.9 | 63.7
Hook3 (hook microtubule tethering protein 3) | 3 | 83.1 | 66.5
Stoml1 (stomatin-like 1) | 1 | 51.2 | 74.1
Stoml1 (stomatin-like 1) | 2 | 69.8 | 94.8
Stoml1 (stomatin-like 1) | 3 | 70.8 | 79.4
Foxo1 (forkhead box O1) | 1 | 75.5 | 90
Foxo1 (forkhead box O1) | 2 | 90.8 | 94
Herc1 | 1 | 114 | 88.2
Herc1 | 2 | 99.5 | 68.2
Herc1 | 3 | 45.6 | 91.7
Srebf2 (sterol regulatory element binding factor 2) | 1 | 114 | 117
Srebf2 (sterol regulatory element binding factor 2) | 2 | 112 | 84.5
Srebf2 (sterol regulatory element binding factor 2) | 3 | 76.4 | 69.8
Wee1 (WEE 1 homolog 1 (S. pombe)) | 1 | 105 | 56.9
Wee1 (WEE 1 homolog 1 (S. pombe)) | 2 | 61.3 | 70.3
Wee1 (WEE 1 homolog 1 (S. pombe)) | 3 | 76.9 | 73.9
Hoxa2 (homeobox A2) | 1 | 88.9 | 105
Hoxa2 (homeobox A2) | 2 | 93.1 | 116
Hoxa2 (homeobox A2) | 3 | 51 | 63.1
Gimap7 (GTPase, IMAP family member 7) | 1 | 62.4 | 69.5
Gimap7 (GTPase, IMAP family member 7) | 2 | 129 (active) | 78.2
Gimap7 (GTPase, IMAP family member 7) | 3 | 108 | 98.7
Col11a1 (collagen, type XI, alpha 1) | 1 | 46.8 | 34.8
Col11a1 (collagen, type XI, alpha 1) | 2 | 103 | 79.1
Col11a1 (collagen, type XI, alpha 1) | 3 | 63.7 | 58.8
Wdr12 (WD repeat domain 12) | 1 | 60.6 | 49.8
Wdr12 (WD repeat domain 12) | 2 | 39.8 | 42.4
Wdr12 (WD repeat domain 12) | 3 | 65.6 | 75.2
Pla2g3 (phospholipase A2, group III) | 1 | 43.9 | 59
Pla2g3 (phospholipase A2, group III) | 2 | 90.1 | 78.6
Pla2g3 (phospholipase A2, group III) | 3 | 56.8 | 63
Gsdmc (gasdermin C) | 1 | 63.8 | 51.7
Gsdmc (gasdermin C) | 2 | 74.8 | 74.7
Gsdmc (gasdermin C) | 3 | 63.8 | 40.9
Csk (c-src tyrosine kinase) | 1 | 63.4 | 35.2
Tanc2 | 1 | 91.3 | 81.6
Tanc2 | 2 | 92.3 | 77.1
Tanc2 | 3 | 130 (active) | 135
Armcx2 (armadillo repeat containing, X-linked 2) | 1 | 86.5 | 80.2
Armcx2 (armadillo repeat containing, X-linked 2) | 2 | 62.5 | 62.3
Armcx2 (armadillo repeat containing, X-linked 2) | 3 | 70.2 | 64.1
